{"source": "the supplement of paper PMC8728848", "binders": {"B1": {"name": "NanH (Corynebacterium diphtheriae), C6JSW6 (protein)", "chain": "MYSSNRTYSRAILGLSAVLTLSFTSLVAPVNAEEPETVVPATAELEGEVAATLPSAETGLLDAAPPKPVARGAAGDLQLPAVNEKEVFEEGRVIRAPEPDQSRCYRIPALVTAKNGDLLLAFDNRYGGGDGAKTWCRDAPYENMKRINRQNMQTDIQLYRSVDNGQSFEDFGYIAQGTADVRELSYTDPALVTDRTTGKIFAFFVRAYDYRVGQSSAGFNEGDVEAEIQKRDVQDTVVVESLDGGQTWGNMRLLSALTAKVSSISTGDTIFDGRGRFVTSGAGIQLQYGEHAGRLIVPISVDIDPKDSAKFINLAIYSDDHGQTWQAGIGTAGGAGFSGDVSKIVELSDGRLMMSSKDNDKPRWVSYSEDQGENWSTPKRKIIAPPQHPEKHNTGINVGLIRAYPNAPENSAAARVLLYSAPIDQRYSHKHTEDGRNNGWVMGSCDDGKTWSFGRQIEKNRFQYSSMTVMSDGNIGMVYESGDFSTGMNLKFAKFNMAWLGADCHSNEALGLTGDIDKEIVEAQEKAAEATKEAQEAAEKVQKLTEELAAARKENDELKNQVKGFKEAVGDLANEAEDLADKVFKLETAVTEAKEKATVAEKAASDAVTQLQKAESIAEEQKAKAESAAAEAQALREKLERLEGSILTVKENPEAEEIADLSSTAKDAADAARRAATDANGALSGQKQDEEKPAMGLMGILKVLAGIIPLVAIIATIFQTFRLPFNIPGMR"}}, "assay_in_all_cases": "glycan array binding signal (z-score within array); higher = stronger binding", "settings_in_all_cases": "glycan notation: IUPAC condensed, linker removed", "key": {"[1]": {"target": "Gal3S(b1-3)[Fuc(a1-4)]GlcNAc", "summary_of_the_method": "(§1)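 The Consortium for Functional Glycomics database supplied 3228 glycan arrays, of which those lacking an available protein sequence were dropped. The binding signal, a within-array Z-score, was averaged across arrays of the same protein sequence and across linkers. Negative scores can be read as non-binding.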"}, "Gal3S(b1-4)Glc": {"target": "Gal3S(b1-4)Glc", "summary_of_the_method": "as §1"}, "Gal3S(b1-4)Glc6S": {"target": "Gal3S(b1-4)Glc6S", "summary_of_the_method": "as §1"}, "Gal3S(b1-4)GlcNAc": {"target": "Gal3S(b1-4)GlcNAc", "summary_of_the_method": "as §1"}, "Gal3S(b1-4)GlcNAc6S": {"target": "Gal3S(b1-4)GlcNAc6S", "summary_of_the_method": "as §1"}, "[2]": {"target": "Gal3S(b1-4)[Fuc(a1-3)]Glc", "summary_of_the_method": "as §1"}, "[3]": {"target": "Gal3S(b1-4)[Fuc(a1-3)]Glc6S", "summary_of_the_method": "as §1"}, "Gal3S4S(b1-4)GlcNAc": {"target": "Gal3S4S(b1-4)GlcNAc", "summary_of_the_method": "as §1"}, "Gal3S6S(b1-4)GlcNAc": {"target": "Gal3S6S(b1-4)GlcNAc", "summary_of_the_method": "as §1"}, "Gal3S6S(b1-4)GlcNAc6S": {"target": "Gal3S6S(b1-4)GlcNAc6S", "summary_of_the_method": "as §1"}, "Gal4S(b1-4)GlcNAc": {"target": "Gal4S(b1-4)GlcNAc", "summary_of_the_method": "as §1"}, "Gal4S6S(b1-4)GlcNAc": {"target": "Gal4S6S(b1-4)GlcNAc", "summary_of_the_method": "as §1"}, "Gal6S(b1-3)GlcNAc": {"target": "Gal6S(b1-3)GlcNAc", "summary_of_the_method": "as §1"}, "Gal6S(b1-3)GlcNAc6S": {"target": "Gal6S(b1-3)GlcNAc6S", "summary_of_the_method": "as §1"}, "Gal6S(b1-4)Glc": {"target": "Gal6S(b1-4)Glc", "summary_of_the_method": "as §1"}, "Gal6S(b1-4)Glc6S": {"target": "Gal6S(b1-4)Glc6S", "summary_of_the_method": "as §1"}, "Gal6S(b1-4)GlcNAc": {"target": "Gal6S(b1-4)GlcNAc", "summary_of_the_method": "as §1"}, "Gal6S(b1-4)GlcNAc6S": {"target": "Gal6S(b1-4)GlcNAc6S", "summary_of_the_method": "as §1"}, "GalNAc(a1-3)Gal": {"target": "GalNAc(a1-3)Gal", "summary_of_the_method": "as §1"}, "GalNAc(a1-3)GalNAc": {"target": "GalNAc(a1-3)GalNAc", "summary_of_the_method": "as §1"}, "[4]": {"target": "GalNAc(a1-3)GalNAc(b1-3)Gal(a1-4)Gal(b1-4)Glc", "summary_of_the_method": "as §1"}, "[5]": {"target": "GalNAc(a1-3)GalNAc(b1-3)Gal(a1-4)Gal(b1-4)GlcNAc", "summary_of_the_method": "as §1"}, "GalNAc(b1-3)Gal": {"target": "GalNAc(b1-3)Gal", "summary_of_the_method": "as §1"}, "[6]": {"target": "GalNAc(b1-3)Gal(a1-4)Gal(b1-4)GlcNAc", "summary_of_the_method": "as §1"}, "[7]": {"target": "GalNAc(b1-3)Gal(a1-4)Gal(b1-4)GlcNAc(b1-3)Gal(b1-4)Glc", "summary_of_the_method": "as §1"}, "[8]": {"target": "GalNAc(b1-3)Gal(a1-6)Gal(b1-4)Glc", "summary_of_the_method": "as §1"}, "GalNAc(b1-3)GalNAc": {"target": "GalNAc(b1-3)GalNAc", "summary_of_the_method": "as §1"}, "GalNAc(b1-4)Gal(b1-4)Glc": {"target": "GalNAc(b1-4)Gal(b1-4)Glc", "summary_of_the_method": "as §1"}, "GalNAc(b1-4)GlcNAc": {"target": "GalNAc(b1-4)GlcNAc", "summary_of_the_method": "as §1"}, "[9]": {"target": "GalNAc(b1-4)GlcNAc(b1-2)Man(a1-3)[GalNAc(b1-4)GlcNAc(b1-2)Man(a1-6)]Man(b1-4)GlcNAc(b1-4)GlcNAc", "summary_of_the_method": "as §1"}}, "note": "Some of the results follow.", "data": [{"binder": "B1", "values": [{"measurement": "glycan array binding signal (z-score)", "setting": "[1]", "value": 0.183}, {"measurement": "glycan array binding signal (z-score)", "setting": "Gal3S(b1-4)Glc", "value": -1.3}, {"measurement": "glycan array binding signal (z-score)", "setting": "Gal3S(b1-4)Glc6S", "value": -0.269}, {"measurement": "glycan array binding signal (z-score)", "setting": "Gal3S(b1-4)GlcNAc", "value": 0.095}, {"measurement": "glycan array binding signal (z-score)", "setting": "Gal3S(b1-4)GlcNAc6S", "value": 0.961}, {"measurement": "glycan array binding signal (z-score)", "setting": "[2]", "value": -0.457}, {"measurement": "glycan array binding signal (z-score)", "setting": "[3]", "value": -0.594}, {"measurement": "glycan array binding signal (z-score)", "setting": "Gal3S4S(b1-4)GlcNAc", "value": -0.482}, {"measurement": "glycan array binding signal (z-score)", "setting": "Gal3S6S(b1-4)GlcNAc", "value": -1.03}, {"measurement": "glycan array binding signal (z-score)", "setting": "Gal3S6S(b1-4)GlcNAc6S", "value": -0.789}, {"measurement": "glycan array binding signal (z-score)", "setting": "Gal4S(b1-4)GlcNAc", "value": -0.899}, {"measurement": "glycan array binding signal (z-score)", "setting": "Gal4S6S(b1-4)GlcNAc", "value": -0.823}, {"measurement": "glycan array binding signal (z-score)", "setting": "Gal6S(b1-3)GlcNAc", "value": -0.551}, {"measurement": "glycan array binding signal (z-score)", "setting": "Gal6S(b1-3)GlcNAc6S", "value": -0.653}, {"measurement": "glycan array binding signal (z-score)", "setting": "Gal6S(b1-4)Glc", "value": 1.75}, {"measurement": "glycan array binding signal (z-score)", "setting": "Gal6S(b1-4)Glc6S", "value": -1.68}, {"measurement": "glycan array binding signal (z-score)", "setting": "Gal6S(b1-4)GlcNAc", "value": 2.1}, {"measurement": "glycan array binding signal (z-score)", "setting": "Gal6S(b1-4)GlcNAc6S", "value": 1.98}, {"measurement": "glycan array binding signal (z-score)", "setting": "GalNAc(a1-3)Gal", "value": 0.548}, {"measurement": "glycan array binding signal (z-score)", "setting": "GalNAc(a1-3)GalNAc", "value": 0.005}, {"measurement": "glycan array binding signal (z-score)", "setting": "[4]", "value": 0.199}, {"measurement": "glycan array binding signal (z-score)", "setting": "[5]", "value": -0.537}, {"measurement": "glycan array binding signal (z-score)", "setting": "GalNAc(b1-3)Gal", "value": -1.91}, {"measurement": "glycan array binding signal (z-score)", "setting": "[6]", "value": -0.371}, {"measurement": "glycan array binding signal (z-score)", "setting": "[7]", "value": -0.502}, {"measurement": "glycan array binding signal (z-score)", "setting": "[8]", "value": 0.909}, {"measurement": "glycan array binding signal (z-score)", "setting": "GalNAc(b1-3)GalNAc", "value": -0.064}, {"measurement": "glycan array binding signal (z-score)", "setting": "GalNAc(b1-4)Gal(b1-4)Glc", "value": -1.05}, {"measurement": "glycan array binding signal (z-score)", "setting": "GalNAc(b1-4)GlcNAc", "value": -0.431}, {"measurement": "glycan array binding signal (z-score)", "setting": "[9]", "value": 3.38}]}]}
